The record followed here is US20200109207A1.

Sequences of proteins named here, by UniProt entry; tags and fusion partners are left off. A change or cut given only in a name is not applied to a line headed by its entry. A line that says so, or that is headed by a name, gives the form on record, which may keep a tag or linker.
recombinant cynomolgus PD-L1-FLAG-HIS (G7PSE7, form named): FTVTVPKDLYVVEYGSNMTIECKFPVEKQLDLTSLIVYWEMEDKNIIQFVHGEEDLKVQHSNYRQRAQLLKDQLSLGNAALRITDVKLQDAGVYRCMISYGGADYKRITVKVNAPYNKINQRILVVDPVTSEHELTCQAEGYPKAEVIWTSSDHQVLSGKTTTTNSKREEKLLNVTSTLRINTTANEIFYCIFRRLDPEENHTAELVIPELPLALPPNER

Changes are numbered by the printed parent chain. Results are given in words; binding and its absence hold for the method and conditions named. Some binding calls cover weakened binding; strength is not graded here.

The target in assay [1] is recombinant cynomolgus PD-L1-FLAG-HIS (cynomolgus) (UniProt G7PSE7). Nature of the assay: ELISA, plate coated with recombinant cynomolgus PD-L1-FLAG-HIS; hybridoma supernatants.
Assay [2] shares this target. The assay is described as follows: ELISA, plate coated with recombinant cynomolgus PD-L1-FLAG-HIS; hybridoma supernatants, anti-rat IgG Fc-HRP detection. On the technique in general: In an ELISA, binding on a coated surface is turned into a signal by an enzyme label.

B1: anti-PD-L1 human monoclonal antibody 1B3 (antibody, V domains shown)
VH: EVQLVESGGGLVQPGGSLRLSCAASGGTISTSWMSWVRQAPGKGLEWVANIKQDGSEKYYVDSVKGRFTISRDNAKNSLYLQMNSLRVEDTAMYYCARDRPVAGASALWGQGTLVTVSS
VL: DIQMTQSPSTLSASVGDRVTITCRASQSISGWLAWYQQKPGKAPKLLIYKASSLESGVPSRFSGSGSGTEFTLTISSLQPDDFATYYCQQYYGSSRTFGQGTNVEIK
For B1, the binding entry in assay [1] and in assay [2] was “binds” each time.

B2: anti-PD-L1 human monoclonal antibody 4A3 (antibody, V domains shown)
VH: B1 VH with T28I, T31S, N77D, S78L, M93L
VL: B1 VL
On to B2, for which the binding entry in assay [1] and in assay [2] was “binds” each time.

B3: anti-PD-L1 human monoclonal antibody 9H9 (antibody, V domains shown)
VH: B1 VH with T28I, S32Y
VL: B1 VL
As to B3, the binding entry in assay [1] and in assay [2] was “binds” throughout.

B4: anti-PD-L1 human monoclonal antibody 8B1 (antibody, V domains shown)
VH: B1 VH with Q3R, G27D, T28I, S32H, S85T, M93I, A97T
VL: B1 VL with S60L
As for B4, the binding entry in assay [1] and in assay [2] was “binds” each time.

B5: anti-PD-L1 human monoclonal antibody 7H7 (antibody, V domains shown)
VH: B1 VH with M93I
VL: B1 VL with P40Q
As to B5, the binding entry in assay [1] and in assay [2] was “binds” in each case.

B6: anti-PD-L1 human monoclonal antibody 3B6 (antibody, V domains shown)
VH: B1 VH with I29T, S32Y, Y80N, M93I
VL: B1 VL
For B6, the binding result in assay [1] and in assay [2] was “binds” in each case.
